Test results published in US4017607A.

Experiment: Bitter taste upon oral administration

SMILES: CCC(=O)OC1CC(=O)OC(C)CC=CC=CC(O)C(C)CC(CC=O)C(OC2OC(C)C(OC3CC(C)(O)C(OC(=O)CC)C(C)O3)C(N(C)C)C2O)C1OC (stereo not shown) [SF-837 substance, reference compound]
- bitter taste: unpleasant long-lasting bitter taste

Some compounds share one wording; it may come from a single statement.
